Source: ChEMBL document CHEMBL4303122, “Identification of potential treatments for COVID-19 through artificial intelligence-enabled phenomic analysis of human cells infected with SARS-CoV-2” (2020)
Over roughly 1,600 compounds, “Hit score” has its median near 0.13; the highest 2% begin near 0.46. The list shows a part of the results.

System: SARS-CoV-2
Assay: Antiviral activity against SARS-CoV-2 (USA-WA1/2020 strain) measured by imaging in HRCE cells at MOI 0.4 after 96 hrs (reported as hit score from 0-1 for on-disease vs off-disease activity: scores >0.6 considered hits)
Assay type: functional, Homo sapiens

Row | Compound | Hit score
1 | C[C@H]1c2cccc(O)c2C(=O)C2=C(O)[C@]3(O)C(=O)C(C(N)=O)=C(O)[C@@H](N(C)C)[C@@H]3[C@@H](O)[C@@H]21.O [DOXYCYCLINE] | -0.02175
2 | CN1C(=O)CC(C)(c2ccccc2)C1=O (stereo not given) [METHSUXIMIDE] | 0.324
3 | CCC(=O)NS(=O)(=O)c1ccc(-c2c(-c3ccccc3)noc2C)cc1 [PARECOXIB] | 0.03281
4 | N#C[C@@H]1CCCN1C(=O)CNC12CC3CC(CC(O)(C3)C1)C2 [VILDAGLIPTIN] | 0.2586
5 | C#C[C@]1(O)CC[C@H]2[C@@H]3CCC4=C(CCC(=O)C4)[C@H]3CC[C@@]21C [NORETHYNODREL] | 0.09257
6 | CC(C)c1cc2c(cc1S(=O)(=O)O)[C@@]1(C)CCC[C@@](C)(C(=O)O)[C@@H]1CC2 [ECABET] | 0.1341
7 | CCC[C@@H]1C[C@@H](C(=O)N[C@@H]([C@H]2O[C@H](SC)[C@H](OP(=O)(O)O)[C@@H](O)[C@H]2O)[C@H](C)Cl)N(C)C1 [CLINDAMYCIN PHOSPHATE] | 0.1852
8 | COC(=O)c1ccc2c(c1)NC(=O)/C2=C(\Nc1ccc(N(C)C(=O)CN2CCN(C)CC2)cc1)c1ccccc1 [NINTEDANIB] | 0.1859
9 | CC(C)C[C@H](NC(=O)CNC(=O)c1cc(Cl)ccc1Cl)B(O)O [IXAZOMIB] | -0.7016
10 | CNC(=O)c1c(C)oc2cc(Oc3ncnc4cc(OC)c(OC)cc34)ccc12 [FRUQUINTINIB] | 0.1378
11 | CCOc1ccccc1C(N)=O [ETHENZAMIDE] | 0.115
12 | CN(CCOc1ccc(NS(C)(=O)=O)cc1)CCc1ccc(NS(C)(=O)=O)cc1 [DOFETILIDE] | 0.2147
13 | C1=N/C2=N/c3ccc(OCCN4CCCC4)c(c3)COC/C=C/COCc3cccc(c3)C(=C1)N2 [PACRITINIB] | 0.4102
14 | CCCCCC/C=C/C=C\CCCCCCCC(=O)O | 0.1392
15 | COc1ccc2cccc(CCNC(C)=O)c2c1 [AGOMELATINE] | 0.1484
16 | CC(C)NCC(O)c1ccc(NS(C)(=O)=O)cc1 (stereo not given) [SOTALOL] | 0.3853
17 | CCNC1(c2cccs2)CCCCC1=O (stereo not given) [TILETAMINE] | 0.2012
18 | CCCCCCCCCCCCCCCC[N+](C)(C)CCN(Cc1ccc(OC)cc1)c1ncccn1 [THONZONIUM] | 0.1484
19 | COc1cc(OC)cc(N(CCNC(C)C)c2ccc3ncc(-c4cnn(C)c4)nc3c2)c1 [ERDAFITINIB] | 0.03006
20 | Cc1nc(C)c(Cl)c(O)c1Cl [CLOPIDOL] | 0.1314
21 | CCN(CC)CCCC(C)Nc1c2ccc(Cl)cc2nc2ccc(OC)cc12 (stereo not given) [QUINACRINE] | -0.004903
22 | CN(C)CCCN1c2ccccc2CCc2ccc(Cl)cc21 [CLOMIPRAMINE] | 0.1291
23 | Nc1ccc(O)c(C(=O)O)c1 [MESALAMINE] | 0.1964
24 | Clc1ccccc1CN1CCc2sccc2C1 [TICLOPIDINE] | 0.194

Row | Compound | Hit score
25 | CCOC(=O)OC(C)OC(=O)[C@@H]1N2C(=O)[C@@H](NC(=O)[C@H](N)c3ccccc3)[C@H]2SC1(C)C (stereo not given in full) [BACAMPICILLIN] | 0.01773
26 | CCCCCCCC(=O)N[C@H](CN1CCCC1)[C@H](O)c1ccc2c(c1)OCCO2 | -0.0874
27 | O=C(NN1C(=O)[C@@H]2[C@@H]3C=C[C@@H]([C@H]4C[C@@H]34)[C@@H]2C1=O)c1ccc(C(F)(F)F)cc1 [TECOVIRIMAT] | 0.03467
28 | CC(C)NC[C@H](O)COc1ccc(CCOCC2CC2)cc1 [LEVOBETAXOLOL] | 0.4949
29 | O=C1CC[C@@H](C(=O)O)N1 [PIDOLIC ACID] | 0.1555
30 | CCC(C)(C)C(=O)O[C@H]1C[C@@H](C)C=C2C=C[C@H](C)[C@H](CC[C@@H]3C[C@@H](O)CC(=O)O3)[C@H]21 [SIMVASTATIN] | 0.1206
31 | COc1ccc(C(=O)N2CCN(c3ccc4c(c3)CCC(=O)N4)CC2)cc1OC [VESNARINONE] | 0.09463
32 | C=CCc1cc(OC)c(O)c(C(=O)NCCO)c1 [ALIBENDOL] | 0.1813
33 | C[C@H]1O[C@@H](O[C@H]2[C@@H](O)C[C@H](O[C@H]3[C@@H](O)C[C@H](O[C@H]4CC[C@@]5(C)[C@H](CC[C@@H]6[C@@H]5CC[C@]5(C)[C@@H](C7=CC(=O)OC7)CC[C@]65O)C4)O[C@@H]3C)O[C@@H]2C)C[C@H](O)[C@@H]1O [DIGITOXIN] | -0.2851
34 | CC(C)(C)C(=O)OCOC(=O)[C@@H]1N2C(=O)C[C@H]2S(=O)(=O)C1(C)C [SULBACTAM PIVOXIL] | 0.1252
35 | CC[C@]12CCCN3CCc4c(n(c5ccccc45)C(=O)C1)[C@@H]32 [VINBURNINE] | 0.1621
36 | OC[C@@H](O)[C@@H](O)CO [E968] | 0.1573
37 | O=C1C(CC[S+]([O-])c2ccccc2)C(=O)N(c2ccccc2)N1c1ccccc1 (stereo not given) [SULFINPYRAZONE] | -0.09933
38 | O=C(Cc1ccc(-c2ccccc2)cc1)Nc1ccccn1 [DIFENPIRAMIDE] | 0.2732
39 | CCCCC(=O)OCC(=O)[C@]1(O)Cc2c(O)c3c(c(O)c2[C@@H](O[C@H]2C[C@H](NC(=O)C(F)(F)F)[C@H](O)[C@H](C)O2)C1)C(=O)c1c(OC)cccc1C3=O [VALRUBICIN] | 0.1204
40 | NS(=O)(=O)c1cc2c(cc1Cl)N=C(CSCc1ccccc1)NS2(=O)=O [BENZTHIAZIDE] | 0.1308
41 | COC(=O)OCOc1c2n(ccc1=O)N([C@@H]1c3ccccc3SCc3c1ccc(F)c3F)[C@@H]1COCCN1C2=O [BALOXAVIR MARBOXIL] | 5.7e-05
42 | CCCCS(=O)(=O)N[C@@H](Cc1ccc(OCCCCC2CCNCC2)cc1)C(=O)O.Cl.O [TIROFIBAN HYDROCHLORIDE] | 0.1975
43 | C[C@@H]1CC(=O)NN=C1c1ccc(NN=C(C#N)C#N)cc1 [LEVOSIMENDAN] | 0.1264
44 | O=C(Nc1cc(Cl)cc(Cl)c1O)c1c(O)c(Cl)cc(Cl)c1Cl [OXYCLOZANIDE] | 0.1882
45 | O=[N+]([O-])c1ccc([As](=O)(O)O)cc1 | 0.01938
46 | O=C(O)Cc1ccccc1Nc1c(Cl)cccc1Cl [DICLOFENAC] | 0.07182
47 | C[C@@H](c1ncncc1F)[C@](O)(Cn1cncn1)c1ccc(F)cc1F [VORICONAZOLE] | 0.166
48 | CC(C)Cc1ccc([C@H](C)C(=O)O)cc1 [DEXIBUPROFEN] | 0.05761

Row | Compound | Hit score
49 | Cc1ccn(-c2cc(Cl)ccc2[C@@H](Oc2cc(-c3ccc(C[C@H](N)C(=O)O)cc3)nc(N)n2)C(F)(F)F)n1 [TELOTRISTAT] | -0.05214
50 | Cc1cncc(CN2CCC(=C3c4ccc(Cl)cc4CCc4cccnc43)CC2)c1 [RUPATADINE] | 0.08101
51 | CCOc1cc(NC(C)=O)ccc1C(=O)OC [ETHOPABATE] | 0.0447
52 | O=c1[nH]cc(F)c(=O)[nH]1 [FLUOROURACIL] | 0.2369
53 | CC(=O)Oc1cc(C(F)(F)F)ccc1C(=O)O [TRIFLUSAL] | 0.08111
54 | O=C(Nc1cccc2c(=O)cc(-c3nnn[nH]3)oc12)c1ccc(OCCCCc2ccccc2)cc1 | 0.04471
55 | Cc1ccc(C(=O)Nc2ccc(CN3CCN(C)CC3)c(C(F)(F)F)c2)cc1C#Cc1cnc2cccnn12 [PONATINIB] | 0.5086
56 | CC(C)(C)NC[C@H](O)COc1nsnc1N1CCOCC1 [TIMOLOL] | 0.174
57 | C#C[C@]1(O)CC[C@H]2[C@@H]3CCC4=CC(=O)CC[C@@H]4[C@H]3C(=C)C[C@@]21CC [ETONOGESTREL] | 0.1134
58 | NCCCC[C@H](N[C@@H](CCc1ccccc1)C(=O)O)C(=O)N1CCC[C@H]1C(=O)O [LISINOPRIL ANHYDROUS] | 0.2648
59 | O=C(N/N=C/c1ccc([N+](=O)[O-])o1)c1cc([N+](=O)[O-])cc([N+](=O)[O-])c1O [NIFURSOL] | -0.1241
60 | COC1=C(OC)C(=O)C(CCCCCCCCCCO)=C(C)C1=O [IDEBENONE] | 0.08349
61 | CCOC(=O)[C@H](CCc1ccccc1)N[C@H]1CCc2ccccc2N(CC(=O)O)C1=O [BENAZEPRIL] | 0.112
62 | Brc1ccc(NC2C3CC4CC(C3)CC2C4)cc1 (stereo not given) | 0.3495
63 | COc1cccc(N2CCN(C3=Nc4c(F)cccc4[C@H](CC(=O)O)N3c3cc(C(F)(F)F)ccc3OC)CC2)c1 [LETERMOVIR] | 0.3651
64 | Cc1nc2ccccc2n1Cc1ccc(Cl)cc1 [CHLORMIDAZOLE] | -0.04269
65 | CCCN1CC(NS(=O)(=O)N(CC)CC)CC2Cc3c(O)cccc3CC21 (stereo not given) [QUINAGOLIDE] | 0.09123
66 | CCCN[C@H]1CCc2nc(N)sc2C1 [PRAMIPEXOLE] | 0.02328
67 | COc1ccc(C(=O)CC2(O)C(=O)Nc3c(Cl)ccc(Cl)c32)cc1 (stereo not given) | 0.2466
68 | CCOC(=O)c1ccc(OC(=O)CCCCCNC(=N)N)cc1 [GABEXATE] | 0.2661
69 | CCCCC[C@H](O)/C=C/[C@@H]1[C@@H](C/C=C\CCCC(=O)O)[C@@H](O)C[C@H]1O [DINOPROST] | 0.3611
70 | CC(=O)c1ccc(S(=O)(=O)NC(=O)NC2CCCCC2)cc1 [ACETOHEXAMIDE] | 0.1296

Grouped by structure: the compounds so far containing a thiophene ring, fused or not.
Row | Compound | Hit score
17 | CCNC1(c2cccs2)CCCCC1=O (stereo not given) [TILETAMINE] | 0.2012
24 | Clc1ccccc1CN1CCc2sccc2C1 [TICLOPIDINE] | 0.194
